Data reported in paper PMC13536730.
These are yes or no findings as the source states them, for the method shown. In cells and extracts the contact can be indirect. Some entries that bind do so weakly or less than the wild type.

Target: ATP1A3 (sodium pump α3 subunit), endogenous in U87-MG cells (human (endogenous in U87-MG)) (UniProt P13637)
Test: co-IP; U87-MG cell lysates (400 μg total protein), precleared with protein A/G-agarose and normal rabbit IgG; anti-ATP1A3 antibody 5-6 h at 4°C; Western blot with rabbit anti-SNRPG and mouse anti-ATP1A3

binding: binds
Substance: small nuclear ribonucleoprotein polypeptide G (SNRPG), endogenous in U87-MG cells (from UniProt P62308 1-76)
